Measured data: PubChem BioAssay AID1159578 (Peter MacCallum Cancer Centre, 2015)
Assay: 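Knock-downs that alter how fast lymphatic endothelial cells migrate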 (primary screen). Cells: human lymphatic endothelial cells. Knock-down reagent: siRNA pool against human genes, 40 nM. Duration: 48 h after transfection. Detection: 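High-content imaging of dye-stained cells in a scratch assay measures filled wound area and nuclei per well; duplicate means given as ratio to mock and robust z-score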. Scale: migration robust z-score: higher = faster migration into the scratch; migration relative to mock: higher = more scratch area covered than mock; nuclei per well: higher = more cells in the well. Hit rule: 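Migration changed when robust z exceeds 2 or falls below -2 and mean nuclei number is at least 3300; otherwise not called changed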. Meaning of the calls: active = migration changed; inactive = no migration change, or too few cells.
Here is an unselected part of about 18,000 reagents. About 1,030 of all reagents (5.7%) count as active. 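Inactive calls also include pools with fewer than 3300 nuclei, whose migration was not assessed.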 The raw values are shown without normalisation. A number with no mark means an inactive call. The numbers tell different reagents against one gene apart.

Gene | reagent no. | migration robust z-score | migration class with cell-count check | migration relative to mock | nuclei per well, duplicate mean
STAU2 | 1 | 1.96 | migration z between -2 and 2; enough cells | 1.4 | 4838
MAP2K4 | 1 | -1.77 | migration z between -2 and 2; enough cells | 0.46 | 4002
FKRP | 1 | -0.65 | migration z between -2 and 2; enough cells | 0.72 | 4978
PLPP4 | 1 | -0.62 | migration z between -2 and 2; enough cells | 0.68 | 4662
TFG | 1 | 0.06 | migration z between -2 and 2; enough cells | 0.9 | 5056
WNT3A | 1 | 0.32 | migration z between -2 and 2; enough cells | 0.97 | 5615
HRH1 | 1 | -0.72 | migration z between -2 and 2; enough cells | 0.66 | 7350
TEX55 | 1 | -1.72 | migration z between -2 and 2; enough cells | 0.44 | 6358
SNRPA1 | 1 | 1.06 | migration z between -2 and 2; enough cells | 1.16 | 6140
MRPL44 | 1 | -0.49 | migration z between -2 and 2; enough cells | 0.76 | 6380
HDDC3 | 1 | -1.36 | migration z between -2 and 2; enough cells | 0.53 | 5928
LARGE1 | 1 | -1.17 | migration z between -2 and 2; enough cells | 0.58 | 5566
NEO1 | 1 | -0.73 | migration z between -2 and 2; enough cells | 0.66 | 5492

Looked up above.
Entry for TEX55 under “migration class with cell-count check”: migration z between -2 and 2; enough cells
Value of FKRP under “migration robust z-score”: -0.65
Entry for PLPP4 under “migration robust z-score”: -0.62

Further records follow.
Gene | reagent no. | migration robust z-score | migration class with cell-count check | migration relative to mock | nuclei per well, duplicate mean
XAGE5 | 1 | 0.5 | migration z between -2 and 2; enough cells | 1.02 | 5489
TIPE3 | 1 | 1.17 | migration z between -2 and 2; enough cells | 1.19 | 6004
TXNDC12 | 1 | 0.03 | migration z between -2 and 2; enough cells | 0.81 | 6022
GDE1 | 1 | 1.64 | migration z between -2 and 2; enough cells | 1.12 | 5308
DIPK2A | 1 | -0.43 | migration z between -2 and 2; enough cells | 0.78 | 6757
PAX5 | 1 | 0.28 | migration z between -2 and 2; enough cells | 0.86 | 5954
ZNF367 | 1 | 1.11 | migration z between -2 and 2; enough cells | 1.17 | 5574
PRR30 | 1 | 0.32 | migration z between -2 and 2; enough cells | 0.97 | 4838
RMI1 | 1 | -0.38 | migration z between -2 and 2; enough cells | 0.79 | 6082
OAS1 | 1 | -0.08 | migration z between -2 and 2; enough cells | 0.79 | 5104
APCDD1L | 1 | -1.13 | migration z between -2 and 2; enough cells | 0.59 | 6272
PAK5 | 1 | -0.75 | migration z between -2 and 2; enough cells | 0.66 | 5342
DRAM1 | 1 | -1.47 | migration z between -2 and 2; enough cells | 0.5 | 6012
DHX16 | 1 | -2.96 (active) | migration z below -2; enough cells | 0.24 | 5850
GDF15 | 1 | -0.65 | migration z between -2 and 2; enough cells | 0.68 | 5334
XPR1 | 1 | 0.88 | migration z between -2 and 2; enough cells | 0.98 | 6533
DACT3 | 1 | -0.57 | migration z between -2 and 2; enough cells | 0.74 | 6336
ABHD13 | 1 | 0.78 | migration z between -2 and 2; enough cells | 0.96 | 6188
CDKL1 | 1 | -3.52 | under 3300 nuclei; migration not judged | 0.12 | 2915
SLC10A1 | 1 | -0.54 | migration z between -2 and 2; enough cells | 0.74 | 6946
DENND1B | 1 | 1.03 | migration z between -2 and 2; enough cells | 1.15 | 4186
DENND1B | 2 | 2.12 (active) | migration z above 2; enough cells | 1.43 | 5616
CCT8L2 | 1 | -0.7 | migration z between -2 and 2; enough cells | 0.67 | 6426
ARHGEF3 | 1 | 0.34 | migration z between -2 and 2; enough cells | 0.98 | 5736
ABHD17C | 1 | -0.08 | migration z between -2 and 2; enough cells | 0.79 | 4756
CLDN12 | 1 | 1.03 | migration z between -2 and 2; enough cells | 1.16 | 6084
